According to patent publication US11014966B2 (priority 2016, dated 2021):

Assay: general procedure: Fmoc solid-phase peptide synthesis; CTC resin; HBTU/DIPEA; HATU/DIPEA for Fmoc-Dab(Alloc)-OH; TBTU/HOBt for cyclisation
Conditions: whole synthesis, scale 1 mmol, trifluoroacetate salt

For “Boc-Dab(Dde)-Thr(OtBu)-Dab(Dde)-Dab*-Dab(Dde)-[D-Phe]-Leu-Dab(Dde)-Dab(Dde)-Thr(OtBu)*”, which isolated mass is on record?
Its isolated mass is 80 mg.
